{"source": "paper PMC3324470", "note": "No constants are given. Whether binding was seen depends on the method and setting. Some entries that bind do so weakly or less than the wild type.", "data": [{"biological_target": "T1, GAMETOPHYTE … 1 (GAF1/AtRPP30) (Arabidopsis thaliana) (UniProt F4JXF1)", "T1 sequence": "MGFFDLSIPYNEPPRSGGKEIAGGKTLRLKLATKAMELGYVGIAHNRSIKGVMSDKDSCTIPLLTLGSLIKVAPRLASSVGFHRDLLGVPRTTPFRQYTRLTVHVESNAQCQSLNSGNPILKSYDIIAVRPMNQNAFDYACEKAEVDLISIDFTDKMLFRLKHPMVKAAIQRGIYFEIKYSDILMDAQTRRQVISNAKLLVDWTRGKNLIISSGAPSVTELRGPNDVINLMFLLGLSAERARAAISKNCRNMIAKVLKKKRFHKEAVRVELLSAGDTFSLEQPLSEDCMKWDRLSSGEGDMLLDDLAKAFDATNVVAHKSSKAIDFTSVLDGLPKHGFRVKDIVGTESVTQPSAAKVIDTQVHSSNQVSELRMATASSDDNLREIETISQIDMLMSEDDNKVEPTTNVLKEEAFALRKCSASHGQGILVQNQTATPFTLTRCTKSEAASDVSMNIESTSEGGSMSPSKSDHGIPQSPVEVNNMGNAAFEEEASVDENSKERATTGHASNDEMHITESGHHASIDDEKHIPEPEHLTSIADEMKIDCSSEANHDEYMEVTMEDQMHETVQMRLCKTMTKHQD", "experiment": "two-hybrid; pGADT7 and pGBKT7 constructs co-transformed in pairs into yeast AH109; cells adjusted to OD600=0.3, growth on SD/-Trp-Leu-His-Ade plates for 5 or 12 days at 28°C (SD/-Trp-Leu for 3 days as control)", "values": [{"binder": "AtPOP5 (Arabidopsis homologue of RNases P/MRP subunit POP5) (protein, UniProt Q6AWV1 1-151) MVGFKNRYMLMEVFLDPDKDLLGEGTPIILTQFNLSKAIKDSILVNFGECGLGSSLGSFQVKYVNPITKLCIVRSSREEHRQVWLAITLVKSIGNCPVILNLLDISGCIRACRDTALKCDKEKFEQCSKSLSEEEIRQMNTSLEKIKLLEN", "binding": "binds"}, {"binder": "AtPOP1 (Arabidopsis homologue of RNases P/MRP subunit POP1) (protein, UniProt F4IL30 1-826) MATTANGNSKKRDGGLSSLAPRKINVQKFSEARAPELESLHSIVSERLNKDFRSKRNKRRRTNSYNNQPAKKRNIKRQKSQSLIGQVSGGDHEVKITRRVKRRMELKGNPETGFCTSGDGTKRLRTHVWHAKRFTMTKLWGFHLPLGLHGRGRGSRDVLKQSRQGVLVHDASYHIAVQLEGPEGSLLSILNMLLEPSPSSHSKEVFDSILTGGSYENAMLYHVEPPVSQAIAPVTYMWRPSKIPKRRNEEKGGDGIGTDLPVSDKDHEDFRKLWVWIHASSFSEGYAILKVACQKQMNETGVSVDCFSLEGQLAKLEIFGSKASHLLQKTLHPATSTSENPSILRKCSMEKAEVKNVADLYTEENVSSGAILAQFVIDPRLILTSPHDDRTVSVETIKTEPTESVETTTNTEAETFPEVFNCLWDANSELTPPEEENMLCWEKHQSRMDSLCLDDPAAEVPKVSSRPRSSRSCPLLLLKHKKLGNAPTGWSLILPLSWIKVFWNAFVSKGAHAIGQREKRWVSCDDGLPFFPSDFPDCKAYSSFTLSEAADLEEKAQRRPPAIRPFRIPIPPPWNSIHVTRSIGEGSNQKFSSNGRSVVEISSYGGNLFDGIVARTSDSLTTFLQTFTSDNMLLFPHNTSKPSTDLMMTLQEDDKKVRAQIHQSSNKLCLVRVLLHAFKEGSFEEGAVVCAPTLADISLLKSSCSEGEDGRVTIPQSSVSSYFQEQPCGTWELNVPEDTLTEQSHRWPIGFVTTGFVRGSKKPAAEAFCDAVLLGRLRDEQWRDKDVRRRKKQIYVLVRNLRSSAFRLALATIVLEQQDYCDVHCF", "binding": "no binding"}, {"binder": "AtPOP4 (Arabidopsis homologue of RNases P/MRP subunit POP4) (protein, UniProt Q9ZW76 1-296) MGTETVVHDQARWAMAAMERRLAVAKAQLLQQQQQKNEKDKKGTSDVDVSMKESHQADSLPTPSKTSIKKVDPKDDDSVAYTKLSHPVDENLLATNVKFSSAKGTIVDKVLHNLLRSGDSAQKYLQGTKSVKLDNYILLDNFVQSRSSASGSKKASQKDSKRSKSRMSMKRLKKSGALHIPKDLQKFDLFKPMHGMWESYMMKLIKVTGKIQLSLTLLSADLHGAFMFVAECKIASFTGVQGIMVRETSETFGIITRDDKFRVVPKKLSVFIIQLDCWKITLHGDKFISRDNIVQR", "binding": "no binding"}]}]}
